The text below walks through data of paper PMC3877047 (PLoS ONE, 2013).

Amino acid sequences for entries named in this document (tags omitted). A change or cut given only in a name is not applied to a line headed by its entry. Chains listed by the source or under a name are the forms on record and can include a tag or linker. Residues count along the entry.
Sx4(1-275)-His (C-terminally His6-tagged Syntaxin4 C141S, residues 1-275) (P70452, form named): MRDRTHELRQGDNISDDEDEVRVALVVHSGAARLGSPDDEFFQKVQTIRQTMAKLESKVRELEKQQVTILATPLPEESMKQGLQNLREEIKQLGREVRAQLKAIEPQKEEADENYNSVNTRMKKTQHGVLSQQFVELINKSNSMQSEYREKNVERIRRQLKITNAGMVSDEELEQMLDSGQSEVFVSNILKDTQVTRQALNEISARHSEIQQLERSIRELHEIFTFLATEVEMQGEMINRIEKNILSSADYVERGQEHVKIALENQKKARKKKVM

These are yes or no findings as the source states them, for the method shown. Some results given as binding are weak or reduced against the parent protein; the word gives no strength. For some assays here: Where a sequence is shown, tags or fusion partners need not be part of it.

Assay [1] concerns the target HMunc18c (His6-tagged full-length mouse Munc18c from a codon-optimised synthetic gene in pQE30) (mouse) (UniProt Q60770). Kind of assay: SEC-MALS; HMunc18c 2.5 mg/mL, S200 10/300 GL, room temperature; 25 mM Tris-HCl pH 7.5, 300 mM NaCl, 2 mM βME, 10% glycerol; both purified.
For assay [2], the target named is Sx4(1-275)-His (C-terminally His6-tagged Syntaxin4 C141S, residues 1-275) (UniProt P70452). Kind of assay: pull-down; purified Sx4(1-275)-His, SNAP23 and VAMP2 mixed 1:1:1, overnight at 4°C; complex captured on TALON beads by the His6 tag of Sx4(1-275)-His; SDS-PAGE; both purified.

B1: Munc18c (un-tagged) (natural protein, mouse, UniProt Q60770 1-592, looked up)
chain: MAPPVSERGLKSVVWRKIKTAVFDDCRKEGEWKIMLLDEFTTKLLSSCCKMTDLLEEGITVIENIYKNREPVRQMKALYFISPTPKSVDCFLRDFGSKSEKKYKAAYIYFTDFCPDSLFNKIKASCSKSIRRCKEINISFIPQESQVYTLDVPDAFYYCYSPDPSNASRKEVVMEAMAEQIVTVCATLDENPGVRYKSKPLDNASKLAQLVEKKLEDYYKIDEKGLIKGKTQSQLLIIDRGFDPVSTVLHELTFQAMAYDLLPIENDTYKYKTDGKEKEAVLEEDDDLWVRVRHRHIAVVLEEIPKLMKEISSTKKATEGKTSLSALTQLMKKMPHFRKQISKQVVHLNLAEDCMNKFKLNIEKLCKTEQDLALGTDAEGQRVKDSMLVLLPVLLNKNHDNCDKIRAVLLYIFGINGTTEENLDRLIHNVKIEDDSDMIRNWSHLGVPIVPPSQQAKPLRKDRSAEETFQLSRWTPFIKDIMEDAIDNRLDSKEWPYCSRCPAVWNGSGAVSARQKPRTNYLELDRKNGSRLIIFVIGGITYSEMRCAYEVSQAHKSCEVIIGSTHILTPRKLLDDIKMLNKSKDKVSFKDE
notes: made from pQE30-HMunc18c by PCR that removes the His6 codons; A few vector-encoded residues may be left at the N-terminus (surmised); also called untagged Munc18c; un-tagged Munc18c
B1: the binding entry in assay [1] is “no binding (tested: 2.5 mg/mL)”.

B2: SNAP23 (protein, UniProt O09044 1-210)
chain: MDNLSPEEVQLRAHQVTDESLESTRRILGLAIESQDAGIKTITMLDEQGEQLNRIEEGMDQINKDMREAEKTLTELNKCCGLCICPCNRTKNFESGKNYKATWGDGGDNSPSNVVSKQPSRITNGQPQQTTGAASGGYIKRITNDAREDEMEENLTQVGSILGNLKNMALDMGNEIDAQNQQIQKITEKADTNKNRIDIANTRAKKLIDS
Consider B2, for which, in assay [2], the binding entry is on record as “binds”.
